# Earlier results in patent publication US10739353B2, “Suppression of cytokine release and cytokine storm” (SignPath Pharma Inc., priority 2014, dated 2020).
# Details: mice, cited from earlier work
compound,measurement,setting,value
CC(C)c1c(C(=O)Nc2ccccc2)c(-c2ccccc2)c(-c2ccc(F)cc2)n1CC[C@@H](O)C[C@@H](O)CC(=O)O [Atorvastatin],brain damage / neurological outcome after TBI,,Hippocampal degeneration and functional neurological deficits were reduced
same,brain cytokine levels after TBI,cytokines named in value,lower both IL-6 and TNF-α
